Measured values reported in US20210301005A1.

Protein sequences, listed by entry. Tags and fused reporters are not part of them. Lines headed by an entry give the natural chain unless they say otherwise; changes in a name come on top.
UniProt P27090: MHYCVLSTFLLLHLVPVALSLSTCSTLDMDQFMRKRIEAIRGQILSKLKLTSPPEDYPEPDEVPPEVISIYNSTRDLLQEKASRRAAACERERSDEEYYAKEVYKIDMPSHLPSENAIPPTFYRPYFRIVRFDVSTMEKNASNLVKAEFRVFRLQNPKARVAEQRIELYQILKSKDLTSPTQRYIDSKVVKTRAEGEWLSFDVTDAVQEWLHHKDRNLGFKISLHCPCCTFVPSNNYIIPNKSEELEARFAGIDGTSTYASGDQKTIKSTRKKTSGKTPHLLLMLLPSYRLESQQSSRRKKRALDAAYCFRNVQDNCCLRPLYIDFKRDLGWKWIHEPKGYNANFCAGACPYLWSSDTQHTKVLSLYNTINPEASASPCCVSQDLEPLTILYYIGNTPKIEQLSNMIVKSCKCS

Biological target: mouse TGFβ2, mature peptide (mouse) (UniProt P27090)
Assay: Biacore SPR (FIG. 55A)

binding: binds
B1: 6F12 (antibody, V domains shown)
VH: QVQLKESGPGLVQPSQTLSLTCTVSGFSLTTYNVHWVRQPPGKGLEWMGLIWNTGGTRYNSALKSRLSISKDTSKSQVFLRMNSLQTEDTATYYCARDPVPNKWHFDFWGPGTMVTVSS
VL: DIQMTQSPASLSASLGETVTIECLASEDIYSNLAWYQQKPGKSPQLLIYDARSLQDGVPSRFSGSESGPQYSLEINSLQSEDAVTYFCQQHHAYPFTFGSGTKLEIK

These are yes or no findings as the source states them, for the method shown. Binding calls can cover weak binding; strength is not graded here.
